Mtb heat-shock: 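Assay on Mycobacterium tuberculosis, filed only as a heat shock assay from Cornell; the read-out is not stated. The concentration is filed as 10 mM, unlikely as a test dose, so the dose is not known. The record gives no direction; compounds that gave an IC50 in retests scored well above the rest, so higher reads as stronger inhibition. Size under these conditions: about 69,000 compounds, about 930 of them at 50% or above in at least one test.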
LdMetRS: 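Primary screen of methionyl-tRNA synthetase; the read-out is not stated. Target: Methionyl-tRNA synthetase (putative), Leishmania donovani (UniProt E9BF75). The test concentration is not given. Values are per cent inhibition. Of about 68,000 compounds tested this way, about 24 (0.035%) reached 50% or more in at least one test.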
Mtb growth Cornell: 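Whole-cell assay for inhibitors of Mycobacterium tuberculosis growth, labelled Cornell in the record; the read-out is not stated. The concentration is filed as 10 mM, unlikely as a test dose, so the dose is not known. Higher means stronger inhibition (inferred from two other growth screens of the library). Of about 53,000 compounds tested this way, about 900 (1.7%) reached 50% or more in at least one test.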

The chains behind the UniProt entries cited, without tags or fusion partners.
UniProt E9BF75, entry or part of it: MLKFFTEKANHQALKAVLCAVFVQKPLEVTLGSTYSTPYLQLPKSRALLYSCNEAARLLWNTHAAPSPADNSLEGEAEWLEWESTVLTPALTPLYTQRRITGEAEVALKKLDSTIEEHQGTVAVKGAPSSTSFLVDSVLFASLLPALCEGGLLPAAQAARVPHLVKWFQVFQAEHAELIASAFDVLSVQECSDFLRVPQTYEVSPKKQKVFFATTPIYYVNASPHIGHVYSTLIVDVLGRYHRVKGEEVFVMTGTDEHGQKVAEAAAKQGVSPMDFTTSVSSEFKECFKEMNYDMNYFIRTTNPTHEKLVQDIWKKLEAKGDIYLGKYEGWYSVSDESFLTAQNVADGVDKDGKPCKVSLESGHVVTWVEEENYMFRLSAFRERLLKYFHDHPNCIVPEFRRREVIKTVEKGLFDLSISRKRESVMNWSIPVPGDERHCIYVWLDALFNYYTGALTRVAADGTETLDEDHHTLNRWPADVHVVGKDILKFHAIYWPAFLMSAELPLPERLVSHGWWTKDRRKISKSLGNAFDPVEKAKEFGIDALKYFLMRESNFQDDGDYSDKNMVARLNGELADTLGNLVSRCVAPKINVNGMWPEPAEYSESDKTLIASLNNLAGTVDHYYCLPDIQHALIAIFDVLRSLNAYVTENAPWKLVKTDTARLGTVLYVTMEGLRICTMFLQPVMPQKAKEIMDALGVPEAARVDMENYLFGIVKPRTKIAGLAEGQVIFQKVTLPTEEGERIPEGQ

Results are percentages, as filed.
How 0% and 100% were set is not recorded. Most values in the screen are low, and negative values occur.
Compounds were drawn at random from those tested, without regard to their results.
A dash means the value is not listed here; it may have been measured.

For Cc1cnn(CCNCC(=O)NCC2(c3ccccc3)CC2)c1 the result was Mtb heat-shock: -5.371%; LdMetRS: 12.71%. O=C(O)C(F)(F)F.O=C(O)C(F)(F)F.O=C(O)C(F)(F)F.[H][C@@]12CN(Cc3cccnc3)C[C@]1([H])CN(S(=O)(=O)c1cn(C)cn1)C2 read Mtb heat-shock: -14.36%; Mtb growth Cornell: 4.934%. CCN1CCOCC12CCN(C(=O)Cc1ccccc1)CC2 read LdMetRS: 10%. Oc1ccc([C@H]2Oc3cc(O)cc(O)c3C[C@@H]2O)cc1 read Mtb heat-shock: -4.634%; LdMetRS: 12.09%. Result for COc1ccc(-c2cc(C3CCCNC3)ccn2)cc1.Cl (stereo unspecified) was Mtb heat-shock: -0.4402%; Mtb growth Cornell: 13.34%. Result for O=C(c1cnccn1)N1CCN2C[C@H](OCc3ccccc3F)C[C@H]2C1 was LdMetRS: 3.763%.

N#CCCCn1cnc2c(F)cc(Br)cc2c1=O read Mtb heat-shock: -0.3675%; LdMetRS: -14.04%; Mtb growth Cornell: 8.471%. For CNC(=O)c1ccc(C2CN(C(=O)c3cnn(C)c3)CCO2)nc1 (stereo unspecified) the result was Mtb heat-shock: -6.772%; LdMetRS: 17.71%; Mtb growth Cornell: -30.63%. Cn1cccc1CN1CCC2(CC1)CCN(C(=O)c1cnccn1)CC2.O=C(O)C(F)(F)F gave Mtb heat-shock: -29.41%; Mtb growth Cornell: -24.55%. For O=C(C1CC1)N1CCC2(CC1)COCCN2Cc1ccc(F)cc1 the result was LdMetRS: -2.667%. For Cc1oncc1C(=O)N1CCCc2c(C#N)nn(C)c2C1 the result was Mtb heat-shock: 7.365%; LdMetRS: -47.26%; Mtb growth Cornell: 6.236%. c1ccc(O[C@H]2CO[C@@]3(CCCN(Cc4nccs4)C3)C2)nc1 read LdMetRS: 4.945%.

With COCCOc1cccc(CNCc2c(C)nn(C)c2N(C)C)c1 the screen gave Mtb heat-shock: 14.84%; LdMetRS: 1.053%. With COC1COC2(CCN(Cc3ccccc3C)CC2)C1 (stereo unspecified) the screen gave LdMetRS: 10.66%. For O=C1CCC2(CCN(Cc3cscn3)CC2)CN1CC1CCCO1 (stereo unspecified) the result was Mtb heat-shock: -28.05%; LdMetRS: 3.361%; Mtb growth Cornell: -10.05%. Result for CCc1cc(O)nc(C2CCCN2C(=O)c2cc(CC)on2)n1 (stereo unspecified) was Mtb heat-shock: -6.952%; LdMetRS: 16.38%; Mtb growth Cornell: -131.1%. [H][C@@]12CS(=O)(=O)C[C@]1([H])N(C(=O)c1ccc(COC)o1)CCN2CC1CC1 read Mtb heat-shock: 3.8%; Mtb growth Cornell: 5.258%. Result for O=C(O)C(F)(F)F.O=C(O)C(F)(F)F.[H][C@@]12COC[C@]1(COCc1ccccn1)CN(Cc1cccc(OC)c1)C2 was Mtb heat-shock: -27.12%; Mtb growth Cornell: -8.721%.

For c1cnc(OCc2nnc3n2CCN(CC2CC2)C3)nc1 the result was Mtb heat-shock: 12.95%; LdMetRS: 14.16%; Mtb growth Cornell: 3.447%. Result for [H][C@]12CC[C@]([H])(CN(Cc3nnc(C4CC4)o3)C1)N(Cc1cscn1)C2=O was Mtb heat-shock: -12.47%; Mtb growth Cornell: -1.07%. Result for O=C(Cc1c[nH]c2ccccc12)N1CCC(Nc2cccnn2)CC1 was Mtb heat-shock: 20.34%; LdMetRS: 15.68%; Mtb growth Cornell: 25.57%. Result for [H][C@@]12CN(Cc3ccncc3)C[C@]1([H])N(CCCN1CCOCC1)C(=O)O2 was Mtb heat-shock: -9.869%; Mtb growth Cornell: 21.78%. O=c1cc(-c2ccncc2)nc(-c2ccc(CN3CC[C@H](O)C3)cc2)[nH]1 read Mtb heat-shock: -28.98%; LdMetRS: 12.29%; Mtb growth Cornell: 3.632%. For CCc1nc(CN2CCCC(NCc3nc(C)c(C)o3)C2)no1 (stereo unspecified) the result was Mtb heat-shock: -2.996%; LdMetRS: 19.34%.

COC(=O)c1ccccc1NS(=O)(=O)c1c(C)nn(C)c1C read Mtb heat-shock: 2.95%; LdMetRS: 6.361%; Mtb growth Cornell: -1.429%. With Cn1cc(NC(=O)Nc2cccc3cccnc23)ccc1=O the screen gave Mtb heat-shock: -18.18%; LdMetRS: 10.95%; Mtb growth Cornell: -12.52%. Result for CC(=O)Nc1ccc(CN2CCc3[nH]cnc3C2c2nccn2C)cc1 (stereo unspecified) was Mtb heat-shock: 2.289%; LdMetRS: 8.014%; Mtb growth Cornell: -9.649%. Result for CN(Cc1ccncn1)C(=O)C1(Oc2ccc(Cl)cc2)CCNCC1 was Mtb heat-shock: 0.7248%; LdMetRS: 7.532%; Mtb growth Cornell: 37.74%. For OCC1(Cc2cccc(Cl)c2)CCCN(c2ncccn2)C1 (stereo unspecified) the result was Mtb heat-shock: -25.53%; LdMetRS: 7.902%; Mtb growth Cornell: -1.525%. Fc1cnc(N2CCC3(CC2)CN(Cc2cccs2)CCO3)nc1 gave LdMetRS: -1.648%.

COC1CCN(CCNc2ncc(Br)cc2C)CC1 gave Mtb heat-shock: -28.7%; LdMetRS: 4.359%; Mtb growth Cornell: 29.72%. With CCN(CC)CCNc1c(-c2ccccc2)c(=O)c1=O the screen gave Mtb heat-shock: -18.68%; LdMetRS: 15.23%. COc1cccc(CN2CCCC3(CCN(C(CO)CO)C3)C2)c1 (stereo unspecified) read Mtb heat-shock: -33.88%; LdMetRS: 5.376%; Mtb growth Cornell: 30.94%. With Cc1cc(C(=O)N2CCCC(n3ccnc3C)C2)c(C)s1 (stereo unspecified) the screen gave Mtb heat-shock: 4.203%; LdMetRS: 10.56%; Mtb growth Cornell: 12.45%.

Once more, the final 3:

Compound,Mtb heat-shock,LdMetRS,Mtb growth Cornell
CCN(CC)CCNc1c(-c2ccccc2)c(=O)c1=O,-18.68,15.23,-
COc1cccc(CN2CCCC3(CCN(C(CO)CO)C3)C2)c1 (stereo unspecified),-33.88,5.376,30.94
Cc1cc(C(=O)N2CCCC(n3ccnc3C)C2)c(C)s1 (stereo unspecified),4.203,10.56,12.45

Data taken from ChEMBL document CHEMBL3988442, “University of Dundee, Small-Polar-MMV Screening Library” (2021).